Measurements taken from the supplement of paper PMC12889115.
The list shows a part of the results. Values are raw readings; no control value is given beside them.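 In the initial screen, polymyxin B was used at a concentration that permeabilizes Salmonella's outer membrane but not its inner membrane. Maximum growth was set by DMSO wells with or without polymyxin B. Since plates varied, data were ranked per plate, and compounds giving the lowest OD600 advanced as hits.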

System: Salmonella enterica serovar Typhimurium SL1344
Assay: bacterial growth OD600 after 18 h with compound and polymyxin B; higher = more bacterial growth (less inhibition)
Details: 50 µM, Mueller-Hinton broth

| SMILES | bacterial growth OD600 (polymyxin B 1 µg/mL) | bacterial growth OD600 (polymyxin B 0.75 µg/mL) |
| --- | --- | --- |
| O=C1O[C@@H]2CN(C3CCOCC3)C[C@@H]2N1CCCc1ccc(F)cc1 | 1.25 |  |
| CC(C)N(C)C(=O)c1cn(Cc2ccccc2Cl)nn1 | 1.06 |  |
| CC1CN(Cc2ccc3ncccc3c2)Cc2cc(Cl)ccc2O1 (stereo unspecified) |  | 0 |
| CC(C)CC1(C2CCN(C(=O)Cc3ccc4c(c3)OCO4)CC2)NC(=O)N(Cc2cccs2)C1=O (stereo unspecified) |  | 0.942 |
| Fc1ccc(F)c(CNC2CCCc3c2cnn3-c2ccccc2F)c1 (stereo unspecified) |  | 0.786 |
| O=C(c1cn(Cc2ccccc2Cl)nn1)N1CCCCC1CCn1cccn1 (stereo unspecified) | 0.808 |  |
| Cc1ccc(CN(C)C(=O)c2cc(COc3ccc(-n4cncn4)cc3)on2)o1 | 0.699 |  |
| Fc1ccccc1Oc1ncccc1CNC1CCSCC1 | 0.833 |  |
| CCOC(=O)C1(CCOc2ccccc2)CCN(C2CCN(C(C)=O)CC2)CC1 | 0.933 |  |
| COc1ccc(CCN2CCCC(CN(C)Cc3ccc4nonc4c3)C2)cc1 (stereo unspecified) |  | 0.685 |
| O=C(NCc1ccccc1)c1csc2nc(-c3ccccc3)cn12 | 0.582 |  |
| CCC(=O)Nc1cc(C(=O)N2CCC(c3ccncc3)CC2)c2c(c1)nc(Cc1ccccc1)n2C |  | 0.846 |
| O=C(c1cc(COc2ccccc2)[nH]n1)N1CCSCC1 | 0.909 |  |
| Cc1cc(C)n(-c2ccc(NC(=O)C3CCN(C(=O)c4ccnn4C)CC3)cc2)n1 | 0.833 |  |
| O=C(NC1CCCCC1)C1CCCN(C2CCN(Cc3ccncc3)CC2)C1 (stereo unspecified) | 0.981 |  |
| Cn1cc(CN2C[C@H]3OC(=O)N(CCCc4ccc(F)cc4)[C@H]3C2)cn1 |  | 0.773 |
| O=C(C1CCCC1)N1CCC2(CCCN(Cc3cccc(F)c3F)C2=O)C1 (stereo unspecified) | 0.889 |  |
| COC(=O)CCCNc1nc(CN2CCCCC2c2nccs2)nc2ccccc12 (stereo unspecified) |  | 0.865 |
| COc1ccccc1/C=C/CN1CCC(CO)(CCOc2ccccc2)CC1 | 0.763 |  |
| COCC(=O)Nc1cc(C(=O)N[C@@H](C)c2ccccc2)cc2ncn(CCc3ccccc3)c12 |  | 0.878 |
| O=C(CCC(F)(F)F)N1CCC(C2CCN(Cc3cccnc3)CC2)C1 (stereo unspecified) |  | 0.958 |

Part of the list above, comma-delimited.
SMILES,bacterial growth OD600 (polymyxin B 1 µg/mL),bacterial growth OD600 (polymyxin B 0.75 µg/mL)
O=C(NCc1ccccc1)c1csc2nc(-c3ccccc3)cn12,0.582,
COC(=O)CCCNc1nc(CN2CCCCC2c2nccs2)nc2ccccc12 (stereo unspecified),,0.865
COc1ccccc1/C=C/CN1CCC(CO)(CCOc2ccccc2)CC1,0.763,
